The list shows a part of the results.
Experiments:
Experiment in all cases: log2 fold change, soluble protein after heating vs DMSO (PISA); higher = thermal stabilisation; K562 cells, 10 uM, 30 min; active = over 0.2 and 3.5 SD of the protein, either way, in both replicates (recomputed)
[1] = compound: CS(=O)(=O)c1ccc(-c2cnc(N)c(C(=O)Nc3ccccc3)n2)cc1
Method in brief: (§1)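 Quantification of soluble protein used TMTpro 16plex LC-MS/MS, with channel sums equalised. Samples were the supernatant after 21,000xg for 90 min of pooled aliquots from K562 cells (2×10^6 cells/mL) treated with 10 μM compound for 30 min, heated for 3 min over 48°C-58°C, and extracted in PBS with 0.5% NP-40 at 4°C. Values, from duplicates, describe thermal stability against control samples on a log2 fold-change scale.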

Sequences of proteins named here, by UniProt entry; tags and fusion partners are left off. A change or cut given only in a name is not applied to a line headed by its entry.
UniProt Q5RI15: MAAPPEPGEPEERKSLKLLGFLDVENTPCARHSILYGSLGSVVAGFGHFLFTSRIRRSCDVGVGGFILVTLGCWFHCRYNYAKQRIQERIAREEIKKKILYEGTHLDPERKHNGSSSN
UniProt Q5TA50: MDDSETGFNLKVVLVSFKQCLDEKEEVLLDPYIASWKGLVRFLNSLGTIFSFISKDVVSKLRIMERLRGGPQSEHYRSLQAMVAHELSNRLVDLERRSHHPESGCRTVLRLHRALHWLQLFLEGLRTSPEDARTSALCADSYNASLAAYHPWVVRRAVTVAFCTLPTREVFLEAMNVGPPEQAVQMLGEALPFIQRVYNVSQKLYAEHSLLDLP
UniProt P48729: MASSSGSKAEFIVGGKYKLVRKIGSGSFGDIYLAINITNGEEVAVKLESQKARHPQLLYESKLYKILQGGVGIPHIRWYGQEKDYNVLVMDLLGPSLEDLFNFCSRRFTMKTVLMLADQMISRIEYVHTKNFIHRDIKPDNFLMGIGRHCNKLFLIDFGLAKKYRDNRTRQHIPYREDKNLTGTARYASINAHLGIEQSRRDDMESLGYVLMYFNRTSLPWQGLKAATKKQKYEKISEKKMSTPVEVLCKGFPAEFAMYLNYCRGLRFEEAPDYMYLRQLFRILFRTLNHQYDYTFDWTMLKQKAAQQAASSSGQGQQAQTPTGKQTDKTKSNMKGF
UniProt P55060: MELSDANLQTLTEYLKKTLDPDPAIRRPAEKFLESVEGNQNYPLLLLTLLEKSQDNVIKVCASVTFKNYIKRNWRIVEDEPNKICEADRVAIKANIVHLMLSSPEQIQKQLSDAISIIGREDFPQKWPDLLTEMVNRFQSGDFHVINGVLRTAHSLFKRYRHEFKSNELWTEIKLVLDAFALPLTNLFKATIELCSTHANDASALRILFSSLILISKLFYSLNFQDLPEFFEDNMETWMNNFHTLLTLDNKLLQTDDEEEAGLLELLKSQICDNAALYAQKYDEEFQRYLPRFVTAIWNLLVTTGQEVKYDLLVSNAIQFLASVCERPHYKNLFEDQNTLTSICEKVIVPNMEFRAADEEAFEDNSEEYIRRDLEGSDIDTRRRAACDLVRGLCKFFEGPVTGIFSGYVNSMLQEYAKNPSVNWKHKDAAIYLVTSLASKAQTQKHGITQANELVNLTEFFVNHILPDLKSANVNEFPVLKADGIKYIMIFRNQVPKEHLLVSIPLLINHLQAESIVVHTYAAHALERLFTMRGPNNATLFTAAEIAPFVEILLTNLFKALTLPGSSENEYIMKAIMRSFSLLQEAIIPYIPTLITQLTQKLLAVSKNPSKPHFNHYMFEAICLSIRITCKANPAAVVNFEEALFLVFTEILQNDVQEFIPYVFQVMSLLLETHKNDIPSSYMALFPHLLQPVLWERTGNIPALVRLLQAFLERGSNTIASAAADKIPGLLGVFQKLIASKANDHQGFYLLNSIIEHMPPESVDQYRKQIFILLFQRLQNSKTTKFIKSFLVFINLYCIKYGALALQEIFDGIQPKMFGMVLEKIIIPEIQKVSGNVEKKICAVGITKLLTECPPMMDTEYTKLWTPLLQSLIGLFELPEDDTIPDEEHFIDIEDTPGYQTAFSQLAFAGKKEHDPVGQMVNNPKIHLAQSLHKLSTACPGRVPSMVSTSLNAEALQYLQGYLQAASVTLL
UniProt Q8N668, whole entry, looked up: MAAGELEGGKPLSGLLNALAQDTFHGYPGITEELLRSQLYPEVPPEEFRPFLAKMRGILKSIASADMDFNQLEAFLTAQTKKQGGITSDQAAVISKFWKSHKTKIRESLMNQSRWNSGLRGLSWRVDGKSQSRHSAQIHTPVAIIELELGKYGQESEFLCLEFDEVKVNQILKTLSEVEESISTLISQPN
UniProt Q10570: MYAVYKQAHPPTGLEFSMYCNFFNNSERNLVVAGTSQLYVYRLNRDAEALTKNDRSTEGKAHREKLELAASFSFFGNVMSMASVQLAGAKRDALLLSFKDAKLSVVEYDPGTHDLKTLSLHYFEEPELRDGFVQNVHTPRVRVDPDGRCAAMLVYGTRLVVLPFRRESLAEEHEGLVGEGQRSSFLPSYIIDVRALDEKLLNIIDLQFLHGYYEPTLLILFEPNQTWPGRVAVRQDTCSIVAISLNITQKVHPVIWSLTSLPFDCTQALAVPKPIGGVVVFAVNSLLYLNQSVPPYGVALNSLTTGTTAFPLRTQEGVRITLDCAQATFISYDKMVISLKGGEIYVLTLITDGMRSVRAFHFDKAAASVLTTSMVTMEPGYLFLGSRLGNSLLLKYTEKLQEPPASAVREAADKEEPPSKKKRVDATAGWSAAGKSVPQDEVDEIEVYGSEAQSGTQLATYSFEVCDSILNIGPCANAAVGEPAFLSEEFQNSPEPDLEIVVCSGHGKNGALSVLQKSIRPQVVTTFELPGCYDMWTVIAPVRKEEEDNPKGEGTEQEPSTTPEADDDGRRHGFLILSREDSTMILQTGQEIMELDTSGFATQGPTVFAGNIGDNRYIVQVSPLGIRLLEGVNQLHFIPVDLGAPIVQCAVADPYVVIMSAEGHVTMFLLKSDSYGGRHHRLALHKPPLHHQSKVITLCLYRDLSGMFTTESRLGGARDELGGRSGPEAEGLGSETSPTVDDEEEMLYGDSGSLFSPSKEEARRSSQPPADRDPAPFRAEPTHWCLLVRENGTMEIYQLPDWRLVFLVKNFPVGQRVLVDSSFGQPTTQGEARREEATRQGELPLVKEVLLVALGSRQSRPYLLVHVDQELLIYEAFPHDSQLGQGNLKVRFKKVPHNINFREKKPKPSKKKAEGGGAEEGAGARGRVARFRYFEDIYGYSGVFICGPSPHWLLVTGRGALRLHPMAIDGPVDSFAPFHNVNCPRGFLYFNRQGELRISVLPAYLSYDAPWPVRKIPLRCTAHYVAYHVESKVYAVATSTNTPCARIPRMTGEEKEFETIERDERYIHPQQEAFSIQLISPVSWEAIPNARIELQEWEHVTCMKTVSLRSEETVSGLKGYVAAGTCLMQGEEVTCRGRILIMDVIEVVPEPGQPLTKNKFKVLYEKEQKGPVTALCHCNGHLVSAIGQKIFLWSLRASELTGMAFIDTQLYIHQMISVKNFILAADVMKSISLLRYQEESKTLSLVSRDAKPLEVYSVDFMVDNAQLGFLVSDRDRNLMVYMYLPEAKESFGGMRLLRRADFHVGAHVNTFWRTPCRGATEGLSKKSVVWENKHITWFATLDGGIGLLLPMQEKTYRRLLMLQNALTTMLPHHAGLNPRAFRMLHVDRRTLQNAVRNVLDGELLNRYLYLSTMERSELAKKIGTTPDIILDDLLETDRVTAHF
UniProt P24311, whole entry, looked up: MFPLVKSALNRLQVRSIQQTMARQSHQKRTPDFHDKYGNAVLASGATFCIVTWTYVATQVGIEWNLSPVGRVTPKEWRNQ
UniProt P48730: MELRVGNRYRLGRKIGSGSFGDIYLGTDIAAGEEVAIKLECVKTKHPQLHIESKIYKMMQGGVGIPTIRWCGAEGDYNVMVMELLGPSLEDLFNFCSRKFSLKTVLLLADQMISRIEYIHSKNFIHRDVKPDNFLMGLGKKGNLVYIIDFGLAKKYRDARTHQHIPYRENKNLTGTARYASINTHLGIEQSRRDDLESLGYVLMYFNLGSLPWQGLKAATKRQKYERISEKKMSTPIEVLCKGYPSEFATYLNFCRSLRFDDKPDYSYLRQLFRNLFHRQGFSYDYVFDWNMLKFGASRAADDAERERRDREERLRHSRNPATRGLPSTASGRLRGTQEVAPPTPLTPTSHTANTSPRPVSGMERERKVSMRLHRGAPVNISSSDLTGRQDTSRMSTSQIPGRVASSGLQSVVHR
UniProt Q9UKF6: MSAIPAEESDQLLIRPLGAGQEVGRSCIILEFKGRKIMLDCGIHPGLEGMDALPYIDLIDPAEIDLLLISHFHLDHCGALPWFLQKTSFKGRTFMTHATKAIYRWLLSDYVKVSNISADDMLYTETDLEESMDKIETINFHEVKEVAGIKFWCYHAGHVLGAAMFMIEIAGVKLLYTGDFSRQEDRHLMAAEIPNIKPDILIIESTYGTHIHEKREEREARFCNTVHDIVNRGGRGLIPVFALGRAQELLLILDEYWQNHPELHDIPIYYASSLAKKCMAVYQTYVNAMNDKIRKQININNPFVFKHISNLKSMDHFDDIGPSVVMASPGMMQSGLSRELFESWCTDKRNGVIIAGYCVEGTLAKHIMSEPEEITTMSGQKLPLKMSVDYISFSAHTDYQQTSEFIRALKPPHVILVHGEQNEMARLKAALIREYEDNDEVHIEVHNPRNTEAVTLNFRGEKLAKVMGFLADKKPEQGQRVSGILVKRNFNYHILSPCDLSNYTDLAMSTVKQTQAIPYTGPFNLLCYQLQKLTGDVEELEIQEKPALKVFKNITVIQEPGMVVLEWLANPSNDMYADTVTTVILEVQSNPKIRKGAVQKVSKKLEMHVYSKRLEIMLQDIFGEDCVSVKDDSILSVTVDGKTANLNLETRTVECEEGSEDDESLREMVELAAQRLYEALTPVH
UniProt Q9P2I0: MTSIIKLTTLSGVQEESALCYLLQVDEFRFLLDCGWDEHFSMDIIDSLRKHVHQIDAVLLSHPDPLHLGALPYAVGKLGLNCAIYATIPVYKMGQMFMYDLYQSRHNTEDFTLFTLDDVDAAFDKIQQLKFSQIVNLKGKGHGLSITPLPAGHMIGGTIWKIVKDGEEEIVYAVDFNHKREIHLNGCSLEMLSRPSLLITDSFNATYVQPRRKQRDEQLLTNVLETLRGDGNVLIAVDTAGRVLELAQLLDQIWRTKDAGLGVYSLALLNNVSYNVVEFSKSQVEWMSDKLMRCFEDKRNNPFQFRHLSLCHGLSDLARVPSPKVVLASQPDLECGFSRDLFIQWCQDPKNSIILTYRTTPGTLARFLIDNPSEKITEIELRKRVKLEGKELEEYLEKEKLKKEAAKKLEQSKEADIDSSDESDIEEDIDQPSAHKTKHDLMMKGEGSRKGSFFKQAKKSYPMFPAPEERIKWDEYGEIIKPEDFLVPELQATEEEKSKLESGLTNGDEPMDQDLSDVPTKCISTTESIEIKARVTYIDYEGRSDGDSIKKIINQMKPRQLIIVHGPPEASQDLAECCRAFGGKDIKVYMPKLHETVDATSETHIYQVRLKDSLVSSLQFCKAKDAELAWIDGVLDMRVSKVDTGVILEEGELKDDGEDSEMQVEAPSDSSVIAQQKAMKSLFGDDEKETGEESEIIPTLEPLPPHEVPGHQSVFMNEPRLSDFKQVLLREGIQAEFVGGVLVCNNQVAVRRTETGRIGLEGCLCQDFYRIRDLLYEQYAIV
UniProt Q53ET0: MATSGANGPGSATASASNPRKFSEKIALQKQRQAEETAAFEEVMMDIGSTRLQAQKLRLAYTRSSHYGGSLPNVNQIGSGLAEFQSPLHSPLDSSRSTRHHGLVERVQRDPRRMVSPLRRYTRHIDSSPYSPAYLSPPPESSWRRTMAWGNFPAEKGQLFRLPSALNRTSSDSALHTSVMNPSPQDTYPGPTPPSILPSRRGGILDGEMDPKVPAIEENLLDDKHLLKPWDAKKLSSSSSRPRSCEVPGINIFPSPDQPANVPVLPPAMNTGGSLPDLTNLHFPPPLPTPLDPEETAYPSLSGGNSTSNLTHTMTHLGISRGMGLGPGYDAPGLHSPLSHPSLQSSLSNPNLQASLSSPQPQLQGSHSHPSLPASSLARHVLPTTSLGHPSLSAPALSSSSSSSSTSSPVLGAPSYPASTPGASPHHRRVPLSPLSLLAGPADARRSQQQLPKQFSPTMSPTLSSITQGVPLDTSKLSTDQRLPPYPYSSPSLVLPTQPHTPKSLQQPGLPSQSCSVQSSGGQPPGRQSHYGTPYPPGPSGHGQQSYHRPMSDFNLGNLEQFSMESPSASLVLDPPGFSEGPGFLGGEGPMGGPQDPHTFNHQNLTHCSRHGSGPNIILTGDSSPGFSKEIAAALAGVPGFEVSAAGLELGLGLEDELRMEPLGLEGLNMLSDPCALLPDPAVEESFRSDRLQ
UniProt Q9UJA2: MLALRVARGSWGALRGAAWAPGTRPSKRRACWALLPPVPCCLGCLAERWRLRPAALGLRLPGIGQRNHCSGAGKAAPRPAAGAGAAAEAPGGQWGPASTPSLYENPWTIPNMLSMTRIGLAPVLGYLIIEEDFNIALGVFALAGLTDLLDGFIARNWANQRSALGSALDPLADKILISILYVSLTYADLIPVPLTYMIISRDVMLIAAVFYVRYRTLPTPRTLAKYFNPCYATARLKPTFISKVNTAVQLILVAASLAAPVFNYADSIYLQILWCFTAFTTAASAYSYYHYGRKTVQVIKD
UniProt Q14061: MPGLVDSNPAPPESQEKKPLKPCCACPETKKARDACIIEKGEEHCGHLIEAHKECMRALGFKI
UniProt P20674, whole entry, looked up: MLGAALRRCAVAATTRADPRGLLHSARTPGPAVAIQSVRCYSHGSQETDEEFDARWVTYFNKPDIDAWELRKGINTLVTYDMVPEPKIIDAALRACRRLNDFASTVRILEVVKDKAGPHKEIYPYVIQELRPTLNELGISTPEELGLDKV
UniProt P12074, whole entry, looked up: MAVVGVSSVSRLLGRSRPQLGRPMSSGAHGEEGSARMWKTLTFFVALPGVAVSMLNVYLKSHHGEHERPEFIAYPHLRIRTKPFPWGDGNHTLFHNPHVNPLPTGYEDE

[2] = compound: C[C@@H](Oc1cc(-c2cnn(C3CCNCC3)c2)cnc1N)c1c(Cl)ccc(F)c1Cl [crizotinib]
Method in brief: as §1

[3] = compound: C[C@@H]1COCCN1C2=NC(=NC(=C2)C3(CC3)S(=O)(=O)C)C4=C5C=CNC5=CC=C4
Method in brief: as §1

[4] = compound: C[C@H](C1=CC=C(C=C1)C(=O)NC2=C3C=CNC3=NC=C2)N
Method in brief: as §1

[5] = compound: Cc1cc(Nc2cc(CN3CCOCC3)c3nc(C)c(Cc4ccc(Cl)cc4F)n3n2)n[nH]1 [gandotinib]
Method in brief: as §1

[6] = compound: Cc1cc(SCc2sc(-c3ccc(C(F)(F)F)cc3)nc2C)ccc1OCC(=O)O
Method in brief: as §1

[7] = compound: Cc1ccc(-n2nc(C(C)(C)C)cc2NC(=O)Nc2ccc(OCCN3CCOCC3)c3ccccc23)cc1 [doramapimod]
Method in brief: as §1

[8] = compound: Cc1ccc(C(=O)N(CCCN)[C@@H](c2nc3cc(Cl)ccc3c(=O)n2Cc2ccccc2)C(C)C)cc1 [ispinesib]
Method in brief: as §1

[9] = compound: Cc1ccc(NC(=O)c2ccc(CN3CC[C@H](N(C)C)C3)c(C(F)(F)F)c2)cc1Nc1nccc(-c2cncnc2)n1 [bafetinib]
Method in brief: as §1

[10] = compound: Cc1cccc(CC(=O)N2CCc3c2ccc(-c2cn(C)c4ncnc(N)c24)c3F)n1
Method in brief: as §1

[11] = compound: Cc1cn(-c2cc(NC(=O)c3ccc(C)c(Nc4nccc(-c5cccnc5)n4)c3)cc(C(F)(F)F)c2)cn1 [nilotinib]
Method in brief: as §1

[12] = compound: Cc1nc(Nc2n[nH]c3c2CN(C(=O)N[C@H](CN(C)C)c2ccccc2)C3(C)C)c2sccc2n1
Method in brief: as §1

[13] = compound: Cc1nc(Nc2ncc(C(=O)Nc3c(C)cccc3Cl)s2)cc(N2CCN(CCO)CC2)n1 [dasatinib]
Method in brief: as §1

[14] = compound: Cc1ncc(-c2ccnc(Nc3ccc(S(C)(=O)=O)cc3)n2)n1C(C)C
Method in brief: as §1

[15] = compound: Cn1cc(-c2ccc3c(c2)CCN3C(=O)Cc2cccc(C(F)(F)F)c2)c2c(N)ncnc21
Method in brief: as §1

[16] = compound: Cn1cc(-c2ccc3nnc(C(F)(F)c4ccc5ncccc5c4)n3n2)cn1
Method in brief: as §1

[17] = compound: Cn1cncc1[C@@](N)(c1ccc(Cl)cc1)c1ccc2c(c1)c(-c1cccc(Cl)c1)cc(=O)n2C [tipifarnib]
Method in brief: as §1

[18] = compound: FC(F)(F)c1ccc(/C=C/c2nc(COc3ccc(CCCCn4ccnn4)cc3)co2)cc1 [mubritinib]
Method in brief: as §1

[19] = compound: C[C@H](Nc1ncnc2nc[nH]c12)c1cc2cccc(Cl)c2c(=O)n1-c1ccccc1 [duvelisib]
Method in brief: as §1

[20] = compound: Cc1cc(Nc2cc(N3CCN(C)CC3)nc(Sc3ccc(NC(=O)C4CC4)cc3)n2)n[nH]1 [tozasertib]
Method in brief: as §1

Measured: log2 fold change

CPD (UniProt O75976)
inactive: [1] 0 | [3] 0.002 | [4] 0.019 | [5] 0.033 | [6] -0.01 | [7] 0.028 | [8] -0.174 | [9] -0.07 | [10] 0.01 | [11] -0.007 | [12] -0.033 | [13] 0.026 | [14] -0.029 | [15] -0.029 | [16] 0.026 | [17] 0.055 | [18] -0.009
active: [2] -0.294

CRYM-AS1 (UniProt A6NIL9)
inactive: [1] 0.2 | [2] -0.077 | [3] -0.132 | [4] -0.08 | [5] -0.299 | [6] -0.024 | [7] -0.144 | [8] 0.022 | [9] 0.063 | [10] 0.048 | [11] -0.023 | [12] -0.426 | [13] -0.108 | [14] -0.28 | [15] -0.015 | [16] -0.189 | [18] 0.114

COX20 isoform 2 (UniProt Q5RI15)
inactive: [1] -0.043 | [2] 0.063 | [3] -0.098 | [4] 0.01 | [5] -0.385 | [6] -0.001 | [7] -0.001 | [8] -0.017 | [9] -0.072 | [10] -0.241 | [11] 0.017 | [12] 0.012 | [13] 0.049 | [14] 0.009 | [15] -0.044 | [16] 0.023 | [17] -0.069 | [18] -0.092

CPTP (UniProt Q5TA50)
inactive: [1] 0.167 | [2] -0.093 | [7] 0 | [8] 0.203 | [16] -0.01 | [18] 0.082

CSNK1A1 (UniProt P48729)
inactive: [1] -0.093 | [2] -0.115 | [3] -0.114 | [4] -0.073 | [5] 0.014 | [6] 0.017 | [7] 0.024 | [8] -0.125 | [9] -0.044 | [10] -0.156 | [11] -0.106 | [12] -0.008 | [13] 0.011 | [14] 0.033 | [15] -0.118 | [16] -0.055 | [17] 0.022 | [18] -0.086

CSE1L (UniProt P55060)
inactive: [1] 0.008 | [2] -0.063 | [3] 0.083 | [4] -0.067 | [5] -0.174 | [6] 0.024 | [7] -0.027 | [8] -0.003 | [9] -0.041 | [10] 0.039 | [11] -0.066 | [12] -0.026 | [13] -0.08 | [14] 0.012 | [15] -0.005 | [16] 0.007 | [17] -0.101 | [18] 0.068

CPEB4 (UniProt Q17RY0)
inactive: [1] 0.033 | [2] -0.145 | [4] 0.068 | [19] 0.01 | [5] 0.278 | [20] -0.093 | [6] -0.019 | [7] 0.057 | [8] -0.132 | [9] -0.047 | [10] -0.118 | [13] -0.006 | [15] 0.043 | [16] -0.015 | [17] -0.04 | [18] 0.079

COMMD1 (UniProt Q8N668)
inactive: [1] -0.108 | [2] -0.022 | [3] -0.092 | [7] 0.009 | [8] -0.112 | [9] -0.162 | [10] -0.085 | [11] 0.009 | [12] -0.179 | [14] -0.057 | [16] -0.087 | [17] -0.016 | [18] -0.069
active: [5] 0.42

CPSF1 (UniProt Q10570)
inactive: [1] -0.015 | [2] -0.021 | [3] -0.185 | [4] 0.048 | [5] -0.068 | [6] 0.161 | [7] 0.09 | [8] 0.036 | [9] 0.026 | [10] -0.007 | [11] 0.065 | [12] -0.002 | [13] -0.037 | [14] -0.014 | [15] -0.077 | [16] -0.14 | [17] 0.026 | [18] -0.007

COX7B (UniProt P24311)
inactive: [1] -0.026 | [2] 0.013 | [3] 0.02 | [4] -0.171 | [5] 0.05 | [6] 0.014 | [7] -0.067 | [9] 0.109 | [10] 0.037 | [11] 0.053 | [12] 0.037 | [13] 0.074 | [14] 0.01 | [15] -0.011 | [17] -0.024 | [18] 0.026

CSNK1D (UniProt P48730)
inactive: [1] 0.12 | [2] -0.103 | [3] -0.246 | [4] 0.055 | [5] 0.054 | [6] 0.069 | [7] 0.109 | [8] -0.116 | [9] 0.1 | [10] 0.064 | [11] -0.025 | [12] 0.073 | [13] 0.119 | [14] 0.241 | [15] -0.083 | [16] -0.042 | [17] 0.051 | [18] -0.148

CPSF3 (UniProt Q9UKF6)
inactive: [1] -0.004 | [2] 0.01 | [3] 0.013 | [4] -0.006 | [5] -0.052 | [6] 0.031 | [7] 0 | [8] -0.003 | [9] -0.052 | [10] 0.041 | [11] -0.006 | [12] -0.073 | [13] -0.082 | [14] -0.023 | [15] -0.071 | [16] -0.023 | [17] -0.027 | [18] 0.02

COPS4 (UniProt Q9BT78)
inactive: [1] -0.01 | [2] 0.112 | [3] 0.064 | [4] -0.064 | [5] 0.022 | [6] 0.002 | [7] -0.014 | [8] 0.086 | [9] 0.003 | [10] 0 | [11] 0 | [12] -0.01 | [13] -0.023 | [14] 0.007 | [15] 0.031 | [16] 0.003 | [17] -0.012 | [18] 0.031

CPSF2 (UniProt Q9P2I0)
inactive: [1] 0.046 | [2] -0.264 | [3] 0.086 | [19] -0.008 | [5] -0.097 | [20] 0.063 | [6] 0.087 | [7] 0.057 | [8] -0.093 | [9] 0.043 | [10] 0.032 | [11] -0.143 | [12] -0.041 | [13] -0.056 | [14] 0.093 | [16] 0.006 | [17] 0.042 | [18] 0.166

CRTC2 (UniProt Q53ET0)
inactive: [1] -0.02 | [2] -0.077 | [3] 0.08 | [7] 0.062 | [8] 0.012 | [9] -0.035 | [11] 0.038 | [12] 0.01 | [14] -0.094 | [16] -0.081 | [17] -0.092 | [18] 0.022

CRLS1 (UniProt Q9UJA2)
inactive: [1] -0.228 | [2] 0.02 | [4] -0.047 | [5] -0.083 | [6] 0.05 | [7] 0.023 | [10] 0.012 | [11] 0.01 | [12] -0.064 | [13] 0.101 | [14] 0.056 | [15] -0.002 | [17] -0.138 | [18] 0.007

COX17 (UniProt Q14061)
inactive: [1] 0.026 | [2] 0.164 | [3] 0.206 | [4] -0.072 | [5] -0.11 | [6] -0.021 | [7] -0.037 | [8] 0.137 | [10] 0.078 | [11] -0.091 | [12] -0.051 | [13] 0.016 | [14] -0.162 | [15] 0.206 | [16] -0.034 | [18] 0.038

COX5A (UniProt P20674)
active: [8] 0.411 | [16] 0.422
inactive: [1] -0.011 | [2] 0.245 | [3] 0.109 | [4] -0.092 | [5] 0.12 | [6] 0.011 | [7] -0.039 | [9] -0.079 | [10] -0.003 | [11] 0.067 | [12] -0.023 | [13] 0.06 | [14] -0.067 | [15] 0.109 | [17] 0.103 | [18] 0.021

Random excerpt: 2 records from the list
COX5A (UniProt P20674)
active: [8] 0.411 | [16] 0.422
inactive: [1] -0.011 | [2] 0.245 | [3] 0.109 | [4] -0.092 | [5] 0.12 | [6] 0.011 | [7] -0.039 | [9] -0.079 | [10] -0.003 | [11] 0.067 | [12] -0.023 | [13] 0.06 | [14] -0.067 | [15] 0.109 | [17] 0.103 | [18] 0.021

CPSF2 (UniProt Q9P2I0)
inactive: [1] 0.046 | [2] -0.264 | [3] 0.086 | [19] -0.008 | [5] -0.097 | [20] 0.063 | [6] 0.087 | [7] 0.057 | [8] -0.093 | [9] 0.043 | [10] 0.032 | [11] -0.143 | [12] -0.041 | [13] -0.056 | [14] 0.093 | [16] 0.006 | [17] 0.042 | [18] 0.166

Further records.

COX6A1 (UniProt P12074)
inactive: [1] 0.108 | [2] 0.132 | [4] -0.082 | [19] 0.119 | [20] -0.059 | [6] -0.024 | [7] 0.076 | [8] 0.096 | [9] -0.142 | [11] 0.232 | [12] -0.039 | [13] 0.056 | [14] -0.013 | [15] 0.041 | [16] 0.099 | [17] 0.158 | [18] 0.034
